Data as given in publication PMC11187069.
These are yes or no findings as the source states them, for the method shown. In cells and extracts the contact can be indirect. Some binding calls cover weakened binding; strength is not graded here.

Chains of the proteins cited; added tags and fusions are not shown.
UniProt O15105: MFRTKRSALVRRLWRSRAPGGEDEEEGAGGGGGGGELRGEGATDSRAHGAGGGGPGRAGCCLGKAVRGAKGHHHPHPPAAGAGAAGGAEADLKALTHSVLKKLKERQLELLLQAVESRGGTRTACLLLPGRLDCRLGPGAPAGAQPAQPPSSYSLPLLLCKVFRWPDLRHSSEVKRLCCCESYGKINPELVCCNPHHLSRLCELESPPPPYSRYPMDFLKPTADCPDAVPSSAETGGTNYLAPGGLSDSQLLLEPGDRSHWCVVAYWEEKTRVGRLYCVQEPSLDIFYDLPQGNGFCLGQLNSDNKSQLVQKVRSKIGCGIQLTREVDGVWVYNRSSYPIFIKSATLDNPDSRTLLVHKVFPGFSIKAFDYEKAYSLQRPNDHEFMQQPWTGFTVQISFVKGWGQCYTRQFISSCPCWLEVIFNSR

Target: T1, TGFBR1 in the Smad7 Co-IP (UniProt P36897)
T1 sequence: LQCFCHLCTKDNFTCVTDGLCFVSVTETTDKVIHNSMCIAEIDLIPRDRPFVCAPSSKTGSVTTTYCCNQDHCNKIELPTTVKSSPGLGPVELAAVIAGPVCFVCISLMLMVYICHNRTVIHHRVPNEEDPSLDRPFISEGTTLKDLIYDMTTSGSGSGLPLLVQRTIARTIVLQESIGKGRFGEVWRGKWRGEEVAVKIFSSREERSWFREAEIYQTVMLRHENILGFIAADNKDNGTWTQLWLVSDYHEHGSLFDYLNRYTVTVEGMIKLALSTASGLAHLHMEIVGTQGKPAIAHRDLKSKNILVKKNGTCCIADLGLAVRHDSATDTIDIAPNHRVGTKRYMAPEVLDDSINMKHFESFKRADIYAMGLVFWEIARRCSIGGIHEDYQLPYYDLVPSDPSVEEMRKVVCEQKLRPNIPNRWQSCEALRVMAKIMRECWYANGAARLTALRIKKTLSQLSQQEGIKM
Assay: co-IP; HEK293T cells and fibroblasts, with miR-17-5p overexpression or inhibition; lysates incubated with indicated antibodies and Protein A/G agarose at 4 °C overnight; immunoblot

binding: binds
Substance: Smad7 (from UniProt O15105 1-426)
